From PMC10218704, “A Novel Blood–Brain Barrier-Penetrating and Vascular-Targeting Chimeric Peptide Inhibits Glioma Angiogenesis” (International Journal of Molecular Sciences, 2023)
These are yes or no findings as the source states them, for the method shown. Some results given as binding are weak or reduced against the parent protein; the word gives no strength.

The chains behind the UniProt entries cited, without tags or fusion partners. Residues count along the entry.
UniProt P35968, residues 20-764: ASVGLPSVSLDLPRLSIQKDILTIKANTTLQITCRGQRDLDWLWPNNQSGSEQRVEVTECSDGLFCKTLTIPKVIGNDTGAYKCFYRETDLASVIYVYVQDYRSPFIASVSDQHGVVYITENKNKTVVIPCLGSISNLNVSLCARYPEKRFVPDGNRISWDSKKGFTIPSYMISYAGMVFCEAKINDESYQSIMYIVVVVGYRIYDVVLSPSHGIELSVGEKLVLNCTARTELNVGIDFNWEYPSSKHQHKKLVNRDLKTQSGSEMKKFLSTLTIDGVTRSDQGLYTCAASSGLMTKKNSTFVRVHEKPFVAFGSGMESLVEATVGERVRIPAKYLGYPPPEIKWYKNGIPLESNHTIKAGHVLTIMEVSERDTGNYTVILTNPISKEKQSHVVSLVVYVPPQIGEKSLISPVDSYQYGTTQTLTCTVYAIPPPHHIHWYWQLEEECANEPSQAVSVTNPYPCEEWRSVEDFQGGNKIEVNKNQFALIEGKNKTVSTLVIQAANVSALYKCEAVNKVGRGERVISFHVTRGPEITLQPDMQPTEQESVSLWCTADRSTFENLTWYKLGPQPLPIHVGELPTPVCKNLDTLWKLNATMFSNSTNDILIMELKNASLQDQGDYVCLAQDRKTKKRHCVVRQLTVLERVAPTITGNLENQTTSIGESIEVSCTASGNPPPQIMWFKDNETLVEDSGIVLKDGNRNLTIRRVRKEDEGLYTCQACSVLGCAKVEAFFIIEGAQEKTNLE

Experiments:
[1] = molecular target: T1, Purified recombinant human NRP-1 receptor protein (human) (UniProt O14786); experiment: SPR; both purified
T1 sequence: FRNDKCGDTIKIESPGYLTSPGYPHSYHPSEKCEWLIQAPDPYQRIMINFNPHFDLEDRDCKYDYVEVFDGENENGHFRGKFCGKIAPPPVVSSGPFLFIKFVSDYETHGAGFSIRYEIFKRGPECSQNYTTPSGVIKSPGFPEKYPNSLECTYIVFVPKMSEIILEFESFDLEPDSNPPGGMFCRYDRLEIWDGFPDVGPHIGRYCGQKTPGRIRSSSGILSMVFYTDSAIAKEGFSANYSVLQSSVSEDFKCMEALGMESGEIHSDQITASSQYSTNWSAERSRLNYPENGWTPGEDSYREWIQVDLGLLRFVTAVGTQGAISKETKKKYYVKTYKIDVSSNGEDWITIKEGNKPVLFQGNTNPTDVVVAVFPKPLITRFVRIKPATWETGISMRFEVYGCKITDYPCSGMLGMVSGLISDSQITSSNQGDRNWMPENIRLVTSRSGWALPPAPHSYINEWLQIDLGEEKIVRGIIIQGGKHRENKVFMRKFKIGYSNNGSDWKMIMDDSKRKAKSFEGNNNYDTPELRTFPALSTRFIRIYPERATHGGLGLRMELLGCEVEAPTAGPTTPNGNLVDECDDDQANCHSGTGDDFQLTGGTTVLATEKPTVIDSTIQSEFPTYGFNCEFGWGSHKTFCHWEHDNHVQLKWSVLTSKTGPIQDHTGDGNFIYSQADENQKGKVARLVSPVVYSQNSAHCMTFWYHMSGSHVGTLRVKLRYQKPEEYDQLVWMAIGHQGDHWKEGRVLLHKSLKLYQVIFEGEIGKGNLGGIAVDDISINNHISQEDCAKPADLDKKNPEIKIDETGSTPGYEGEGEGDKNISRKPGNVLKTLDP

[2] = molecular target: Purified recombinant human VEGFR-2 receptor protein (human) (UniProt P35968); experiment: SPR; both purified

Binder: RKKRRQRRRCATWLPPR [TAT-AT7]
- binding [1]: binds
- binding [2]: binds
